According to US20260055150A1, “GRAIL-1 PEPTIDE PRODUCTS AND METHODS” (REGENTS OF THE UNIVERSITY OF MICHIGAN, priority 2022, published 2026):
These are yes or no findings as the source states them, for the method shown. In cells and extracts the contact can be indirect. Some binding calls cover weakened binding; strength is not graded here.

Molecular target: recombinant purified DNAJA1 (purified HSP40 protein) (UniProt P31689)
Test: peptide pull-down, TAT-less peptide on NHS-activated Sepharose beads, anti-His Western blot

binding: binds
Binder: CKVPPWR [Pep 28 (TAT-less Pep 9, CKVPPWR)]
